These results are taken from the supplement of paper PMC5949888.

± gives the standard deviation of the averaged measurements. Most values lie at the floor of the assay. Slopes are relative: functional sequences can read slightly below zero.

For this data set, the system named is Saccharomyces cerevisiae PS128 hsf1 delta, HSF1(1-493) fusion. In words: growth estimate (transactivation domain function in HSF1 fusion, heat-shock survival) (a.u. (slope of normalised read count over time)); higher = stronger growth at 37°C, i.e. more transactivation activity. The following applies: library: random library.
With EMSPIRSAMRGR, the growth estimate is < -0.25. As for TATRGRMYVSAHRSSAIQPA, the figure is < -0.25; as for RDESW, < -0.25. As to WGPQLQCVIPVWRTIR, the growth estimate is < -0.25. As for RILYAGGPSGRLGLEAT, the figure is < -0.25; as for RGWSILMDVGAERIRDKSFT, < -0.25. QFLMRTHCKLYGSNDMRSQH: the growth estimate is < -0.25. Regarding PGVCVGRAPLTLAKTVAQRR, the growth estimate was < -0.25.

Regarding RCSLLLRNTGNDAAWAIFQL, the growth estimate was < -0.25. On to FCWDRSGSAARTQPGMDQIR, for which the growth estimate was < -0.25. Consider SRRAF, for which the growth estimate is < -0.25. Take WEDPVSDLQKAEGVALLHSL: the growth estimate is < -0.25. GPEPHS: the growth estimate is < -0.25. Turning to APRKVSRRPSKDYPVDGGSI, the growth estimate was < -0.25.

Consider SSLAHLITSKIRGDLFIRPL, for which the growth estimate is < -0.25. As to TRSGGSIFLVMRGRGFDGNC, the growth estimate is < -0.25. For the substance HGDGSVF, the growth estimate is < -0.25.

For the substance LNNRGSCTMILIGKPR, the growth estimate was < -0.25.

For the substance TSGCRDL, the growth estimate is < -0.25. With PATECK, the growth estimate was < -0.25.

Regarding GDLSSVVHSCKWGLALTTSK, the growth estimate is < -0.25. Take VRLRG: the growth estimate was < -0.25. To SGLALSQAYER belongs -0.243; to RLGYQNIQE, < -0.25; to FQCVQLKIQTPS, < -0.25.

GHWGTEFERSVSPCFTCVSI: the growth estimate is < -0.25. As for RLWYFSRVCRDVGGAGGSPK, the figure is < -0.25. To SAPVP belongs < -0.25; to SPHLYA, < -0.25. As for LGFSKRF, the figure is < -0.25. Regarding MRAVLNLRRQQSTAGRSPA, the growth estimate was < -0.25. LWVGLLVVLGEANDLSA: the growth estimate is < -0.25. To SAAPVRFPVRTVARLRRAVA belongs -0.246; to AERICTLHGPRAKGPYVRSP, < -0.25; to RVEGASGNVFSPRRERPPLG, < -0.25.

For PTA, the growth estimate is -0.0849 ± 0.23. As for GWAIKNLAACFIIPLEG, the growth estimate was -0.224. Consider CEIAKRKRAGPVGGPPGNGP, for which the growth estimate is < -0.25. For PMAEV, the growth estimate was < -0.25. As for HGHSSDIKSFGPLHMSHCHG, the figure is < -0.25; as for VGRRIWWASRAGQWLGRSDL, < -0.25.

Regarding MQHVFTSIRDLATHRAK, the growth estimate is < -0.25. With PQEYLKRGSGRLVA, the growth estimate was < -0.25. YVGWE: the growth estimate is < -0.25.

Turning to FFK, the growth estimate was < -0.25. In the case of RSVGMQRGQALSVCVQAPLQ, the growth estimate was < -0.25. With LPRSLNRFRNLYLGI, the growth estimate is < -0.25. Turning to QNAGAMTAARPGGTAEASVV, the growth estimate is < -0.25. On to LAWRTRAL, for which the growth estimate was < -0.25. Regarding ASSFKRLLYYWES, the growth estimate was < -0.25.

As to PASWHKNIIYER, the growth estimate was < -0.25. Take KPVRSGPGLGKRLGEH: the growth estimate is < -0.25.

On to LSTGRYAKVWVLCGELSVTS, for which the growth estimate was < -0.25. Regarding TDYLKRMALRVNRSGSRALV, the growth estimate was < -0.25. As to GLSLHAVQGSSPGLKSRQKV, the growth estimate was < -0.25.

Turning to PLHRWAHLGKQSRVPIPTPV, the growth estimate is < -0.25. As for LSTLRSKRTLLSSRCVDALA, the figure is < -0.25; as for HVLFVIFNREPRLGDEKRIG, < -0.25.

For the substance PHGFFWLGGSIGP, the growth estimate is < -0.25. Regarding LQRGHGSQEAVNLF, the growth estimate was < -0.25. For SQLGSACSVPNRFDDSVLPP, the growth estimate was < -0.25.

Take RGCKKNLAPSSSTHA: the growth estimate is < -0.25. On to WRANIRSEPSLEAGPLLNAL, for which the growth estimate is < -0.25. As for QNWDGVSMRALRPDGVLTAW, the figure is < -0.25. As for LRVCSKLSSSGRIRAYSRSC, the figure is < -0.25. Regarding VRHMQFRF, the growth estimate was < -0.25. To WPNKSAFRLTRKISSSDSCP belongs < -0.25. In the case of SCGPSA, the growth estimate was < -0.25.

In the case of VTSGSR, the growth estimate is -0.243.

Turning to PGAIARDVWTVKCVTMPGSK, the growth estimate is < -0.25.

As for KCGCGGNISCYFP, the growth estimate was < -0.25. Turning to SDGHALLANDMLQRPAFARQ, the growth estimate was < -0.25. On to AQVRMTTEGNAHLYVRPTKT, for which the growth estimate is < -0.25.

Regarding QTPGNRWSKRC, the growth estimate is < -0.25.

Turning to TRIGGSF, the growth estimate is < -0.25. To RYITT belongs < -0.25; to VTFSTCLMKARCPIIVSGTS, < -0.25; to TAPLQGGASRCTRGQDSGVT, < -0.25. To CGDPSVGYHRTSFSQLRHAL belongs < -0.25.
